“And” between values parts separate entries of the source, which are not always exact repeats. Identical values can stand only once. The campaign covered roughly 400,000 compounds. About 13,000 (3.2%) were called active. This list was built around the results that the source calls inconclusive (neither active nor inactive); the mix of calls is not that of the screen. The call rests on the fitted dose curve; in most records, active means well fitted cell-killing curve with a large enough effect; inconclusive means small, poorly fitted or top-dose-only effect, or effect the other way; inactive means flat fitted curve, though single readings scatter. Potencies of inconclusive entries are doubtful fits and often do not repeat.
Assay: qHTS assay for MDR1-selective chemotherapeutics: Primary screen using the drug-selected MDR subline cells KB-V1; further: nearly all actives have a fitted effect of over 60% in size
Settings: KB-V1 MDR cells viability, CellTiter-Glo, 72 h; activity change, negative = cytotoxicity: at 46.1 µM (top of the series)
Outline: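 KB-V1, DMEM (no phenol red) + 10% FBS; cpd pin-transferred, titration series; 72 h, 37 degrees C; CellTiter-Glo, luminescence. Data normalized, curve-fit.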
With `COc1cc(OC)cc(C(=O)NCc2ccc(-n3cccc3)cc2)c1` the Potency was inconclusive: 13 µM [cytotoxic, single point]. For `CSc1ccc(/C=N/NC(=O)c2cccc(O)c2)cc1`, the Potency was inconclusive: 29.1 µM [cytotoxic, single point]. With `COc1cc(NC(=O)C2CCN(c3nc4ccccc4nc3C(F)(F)F)CC2)cc(OC)c1` the Potency was inconclusive: 16.4 µM [cytotoxic, single point]. With `Cc1ccc(-c2nc(N/N=C/c3cccnc3)c3ccccc3n2)cc1` the Potency was inconclusive: 29.1 µM [cytotoxic, single point]. In the case of `CN(C(=S)NC(=O)C1(C)CC1(Cl)Cl)c1ccccc1` (stereo unspecified), the Potency was inconclusive: 18.4 µM [cytotoxic, single point]. For `O=C(O)c1ccc(N=N/C(=N\Nc2ccc(C(=O)O)cc2)c2ccccc2)cc1`, the “activity change, negative = cytotoxicity” value was inactive: -28%. In the case of `CCC(=O)N1c2ccc(C)cc2C2=NNC(=S)NC21O` (stereo unspecified), the “activity change, negative = cytotoxicity” value was inactive: 29.3%. In the case of `O=C(Nc1sc2c(c1C(=O)O)CCCCC2)c1cccs1`, the Potency was inconclusive: 29.1 µM [cytotoxic, single point]. With `O=S(=O)(c1ccc2c(c1)nc(COc1ccc(Cl)cc1)n2CC1CCCO1)N1CCOCC1` (stereo unspecified) the Potency was active: 23.1 µM. In the case of `Cc1ccc(S(=O)(=O)N2CCOCC2)cc1NC(=O)C(c1ccc(Cl)cc1)C(C)C` (stereo unspecified), the Potency was inconclusive: 20.6 µM [cytotoxic, single point]. With `CN(CCCC(=O)NCCc1ccccc1)S(=O)(=O)c1ccc([N+](=O)[O-])cc1` the Potency was inconclusive: 16.4 µM [rising, single point]. For `CCN(CC)S(=O)(=O)c1ccc(-c2nnc(SCC(=O)N3CCc4ccccc43)o2)cc1`, the Potency was inconclusive: 16.4 µM [cytotoxic, partial curve]. In the case of `COc1ccc(C(=O)N=c2sc3ccccc3n2C)cc1`, the Potency was inconclusive: 32.6 µM [cytotoxic, single point]. With `O=C(CSc1nnc(-c2cccnc2)n1Cc1ccco1)N1c2ccccc2Sc2ccccc21` the Potency was active: 6.51 µM. With `CC1CCN(S(=O)(=O)c2ccc3nc(N4CCN(c5ccc(F)cc5)CC4)ccc3c2)CC1` the Potency was inconclusive: 25.9 µM [rising, single point]. For `O=C1c2ccccc2S(=O)N1c1cccc(F)c1` (stereo unspecified), the Potency was inconclusive: 29.1 µM [rising, single point]. In the case of `COc1cc(C2C(S(=O)(=O)c3ccccc3)CON2C)ccc1OCc1ccc(F)cc1` (stereo unspecified), the Potency was inconclusive: 29.1 µM [rising, single point]. With `CCOc1ccc(S(=O)(=O)N(C)c2ccc(OCC(=O)Nc3nc(-c4cc(OC)ccc4OC)cs3)cc2)cc1` the Potency was inconclusive: 4.11 µM [cytotoxic, full curve]. In the case of `CCC(c1nnnn1Cc1ccc(OC)cc1)N1CCN(C(=O)c2ccco2)CC1` (stereo unspecified), the Potency was inconclusive: 6.51 µM [cytotoxic, full curve]. For `COc1cc(OC)cc(C(=O)N2CCN(Cc3ccccc3[N+](=O)[O-])CC2)c1`, the Potency was inconclusive: 16.4 µM [cytotoxic, single point]. With `COc1ccc(CNC(=O)CN2CCN(S(=O)(=O)c3ccccc3)CC2)cc1` the “activity change, negative = cytotoxicity” value was inactive: 2.63%. In the case of `CCc1cc(OCCCCNCc2ccccc2)ccc1Cl`, the Potency was inconclusive: 29.1 µM [cytotoxic, single point]. In the case of `COc1ccc(C(N)=O)c(OCC(=O)Nc2cc(C)on2)c1`, the Potency was inconclusive: 29.1 µM [rising, single point]. With `COc1ccc(S(=O)(=O)N2CC3CCCN3c3cc(C(F)(F)F)ccc32)cc1` (stereo unspecified) the Potency was inconclusive: 20.6 µM [cytotoxic, partial curve]. For `Cc1cccc(CN2C(=O)N/C(=C/c3cc(C)n(-c4cc(C)ccn4)c3C)C2=O)c1`, the “activity change, negative = cytotoxicity” value was inactive: -26.4%. With `O=C(Nc1ccc(C(=O)O)cc1)/C(=C\c1ccc([N+](=O)[O-])cc1)NC(=O)c1ccco1` the “activity change, negative = cytotoxicity” value was inactive: 42.2%. In the case of `COc1ccc(/C=C(/NC(=O)c2ccccc2)c2nc3ccc(Cl)cc3[nH]2)cc1OC`, the Potency was active: 11.6 µM. With `COc1cccc2cc(-c3cc(=O)oc4cc(C)c(OCC(C)=O)cc34)oc12` the “activity change, negative = cytotoxicity” value was inactive: 5.23%. For `COc1ccc(N(C)S(=O)(=O)c2cccc(C(=O)N3CCN(c4cccc(C)c4C)CC3)c2)cc1`, the “activity change, negative = cytotoxicity” value was inactive: -28.6%. With `O=C(N/N=C/c1ccsc1)c1cc(-c2cccs2)nc2ccccc12` the Potency was active: 13 µM. With `Cn1nc(-c2ccccc2)cc1NC(=O)Nc1ccc(C(C)(C)C)cc1` the “activity change, negative = cytotoxicity” value was inactive: -13.6%. In the case of `Oc1ccc(-c2nccc(-c3ccc(Br)cc3)n2)cc1`, the Potency was inconclusive: 1.16 µM [rising, single point]. With `Cc1ccc(O)c(-c2n[nH]c3c2C(c2ccc(F)cc2)N(Cc2ccco2)C3=O)c1` (stereo unspecified) the “activity change, negative = cytotoxicity” value was inactive: -10.5%. With `Cc1c(N(C(=O)c2ccccn2)C2(C(=O)NC3CCCCC3)CCCCC2)c(=O)n(-c2ccccc2)n1C` the “activity change, negative = cytotoxicity” value was inactive: -2.16%. In the case of `O=S1OCCN1c1ccccc1` (stereo unspecified), the “activity change, negative = cytotoxicity” value was inactive: 1.17%. For `CC(C)(C)c1cc(C(=O)NCc2ccccc2)ccn1`, the Potency was inconclusive: 29.1 µM [cytotoxic, single point]. With `CC(C)[C@H]1COCCS(=O)(=O)N1Cc1ccccc1-c1ccc(F)cc1` the Potency was inconclusive: 16.4 µM [cytotoxic, single point]. In the case of `O=C(COc1coc(CN2CCc3ccccc32)cc1=O)N1CCCCC1`, the “activity change, negative = cytotoxicity” value was inactive: -4.88%. In the case of `COc1cccc(/C=C(/C(=O)OCC(N)=O)c2ccccc2)c1`, the Potency was inconclusive: 20.6 µM [cytotoxic, partial curve, poor fit]. For `Cc1c(O)cccc1C(=O)N[C@@H](CSc1ccccc1)[C@H](O)CN1C[C@H]2CCCC[C@H]2C[C@H]1C(=O)NC(C)(C)C`, the Potency was inconclusive: 29.1 µM [cytotoxic, single point] and inconclusive: 23.1 µM [cytotoxic, single point]. With `CC(C)C[C@H](NC(=O)N1CCn2c1nc1ccccc12)C(=O)NC1CCCCC1` the “activity change, negative = cytotoxicity” value was inactive: -6.08%. With `O=C(O)c1ccc(-n2ncc(Cl)c(Cl)c2=O)cc1` the Potency was inconclusive: 29.1 µM [cytotoxic, single point]. With `O=C(C[C@@H]1C[C@@H]2c3cc(NC(=O)C4CCC4)ccc3O[C@@H]2[C@@H](CO)O1)NCc1ccc(Cl)cc1` the “activity change, negative = cytotoxicity” value was inactive: -6.27%. In the case of `CCOC(=O)c1cnc2ccc(OCC)cc2c1Nc1ccc(OCc2ccccc2Cl)cc1`, the “activity change, negative = cytotoxicity” value was inactive: 11.9%. For `Cc1cccc(CNC(=O)CN2C(=O)CSc3c2c(C)nn3-c2ccccc2)c1`, the “activity change, negative = cytotoxicity” value was inactive: 0.305%. In the case of `C=CCC1(CC=C)CCCN1C(=O)C1CCC(=O)N(CCc2ccccc2)C1` (stereo unspecified), the Potency was inconclusive: 8.2 µM [cytotoxic, partial curve]. For `COc1ccc(-c2nc3cc(NC(=O)c4ccc(C)cc4)ccc3o2)cc1Cl`, the Potency was inconclusive: 14.6 µM [cytotoxic, single point]. With `Cc1ccc(-c2cc(C(=O)N3CCN(c4ncccn4)CC3)c3cc(Br)ccc3n2)o1` the Potency was inconclusive: 5.17 µM [cytotoxic, full curve]. With `CCc1ccc(C(C(=O)NC2CCCC2)N(CCOC)C(=O)CCC(=O)Nc2cc(C)on2)cc1` (stereo unspecified) the “activity change, negative = cytotoxicity” value was inactive: -22.7%. For `Cc1ccc(-c2nc3ccccc3c(=O)n2NC(=O)COc2ccccc2)cc1`, the Potency was inconclusive: 29.1 µM [cytotoxic, single point]. For `COc1ccc(-n2nc(C(=O)NCC(=O)NCCCN3CCCCCC3)c3ccccc3c2=O)cc1Cl`, the Potency was inconclusive: 11.6 µM [rising, partial curve]. In the case of `CCOC(=O)c1c(C)n(C)c2ccc(O)c(CN3CCN(C)CC3)c12`, the “activity change, negative = cytotoxicity” value was inactive: 0.139%. For `CCOC(=O)CSc1nc2c(sc(=S)n2-c2ccc(CC)cc2)c(=O)[nH]1`, the “activity change, negative = cytotoxicity” value was inactive: -4.15%. With `O=C(OCc1cc(=O)n2nc(C3CC3)sc2n1)c1ccc(NC(=O)c2ccccc2F)cc1` the Potency was inconclusive: 20.6 µM [rising, single point]. In the case of `Cc1ccc(C(=O)N2CCC(C)CC2)cc1NC(=O)c1nsc2ccccc12`, the “activity change, negative = cytotoxicity” value was inactive: 2.46%. For `Cc1cccc(-c2nc(CN3CCCC(C(=O)NC4CCCCC4)C3)c(C)o2)c1` (stereo unspecified), the Potency was active: 20.6 µM. For `COc1cccc(SCc2noc(C(=O)NCCCN3CCOCC3)c2C(=O)NCCCN2CCOCC2)c1`, the Potency was inconclusive: 29.1 µM [cytotoxic, single point]. For `Cc1ccc(SC(C)C(=O)Nc2ccccc2-c2ccccc2)cc1` (stereo unspecified), the Potency was active: 20.6 µM. In the case of `CN(C)c1ccc(-c2nn3c(-c4ccccc4Cl)nnc3s2)cc1`, the Potency was active: 1.16 µM. For `CC(=O)c1cccc(NC(=O)NC2CCCCCCC2)c1`, the Potency was inconclusive: 18.4 µM [cytotoxic, single point]. In the case of `COc1ccc(CCNC(=O)c2coc(=O)c(Br)c2)cc1`, the “activity change, negative = cytotoxicity” value was inactive: -2.14%. In the case of `COc1ccccc1NC(=O)c1sc2nc3n(c(=O)c2c1C)N=C(c1cccc(Br)c1)CS3`, the “activity change, negative = cytotoxicity” value was inactive: 7.12%. In the case of `COc1ccc(CC(=O)N(Cc2ccccc2)c2ccccc2)cc1S(=O)(=O)N1CCOCC1`, the Potency was inconclusive: 9.2 µM [cytotoxic, partial curve, poor fit]. With `CCOc1ccc(N2C(=O)C(CC(=O)Nc3ccccc3)N(Cc3ccccn3)C2=S)cc1` (stereo unspecified) the Potency was inconclusive: 20.6 µM [cytotoxic, partial curve]. With `COc1ccccc1-c1ccc(SCC(=O)NCc2ccc3c(c2)OCO3)nn1` the Potency was inconclusive: 18.4 µM [cytotoxic, single point]. With `OC[C@@H]1CN(CCN2CCOCC2)C[C@H](n2cnc3c(NC4CC4)ncnc32)O1` the “activity change, negative = cytotoxicity” value was inactive: -13.9%. In the case of `Cc1nc(S(=O)(=O)N2CCN(c3ccccc3F)CC2)cn1C`, the activity change, negative = cytotoxicity was inconclusive: 2.48%. In the case of `O=c1cc(-c2ccccc2[N+](=O)[O-])oc2ccccc12`, the Potency was active: 14.6 µM. In the case of `CCn1c(Oc2cccc(Br)c2)nc2c1c(=O)n(C)c(=O)n2C`, the “activity change, negative = cytotoxicity” value was inactive: -3.43%. With `COc1cccc(C2C=C(c3ccc(Br)s3)Nc3ncnn32)c1OC` (stereo unspecified) the Potency was active: 5.17 µM. In the case of `Cc1ccc(-n2nc3c(N4CCC(C(=O)NCc5cccc(F)c5)CC4)nnc(C)c3c2C)cc1`, the “activity change, negative = cytotoxicity” value was inactive: -1.99%.

Source: PubChem BioAssay AID1347076 (National Center for Advancing Translational Sciences (NCATS), 2019)
On the % scale 0 is the no-effect control and ±100 the full control effect; potency means the concentration at half of the fitted maximal effect.
